Data taken from article PMC9585242.
Like-named read-outs stand apart in the source and are kept apart here. No constants are given. Whether binding was seen depends on the method and setting. In cells and extracts the contact can be indirect. A yes stands for co-enrichment or nearness to the bait. Other partners may have been found. For some assays here: No binding means not detected with the bait.

Protein sequences, listed by entry. Tags and fused reporters are not part of them. Lines headed by an entry give the natural chain unless they say otherwise; changes in a name come on top.
UniProt Q383A4: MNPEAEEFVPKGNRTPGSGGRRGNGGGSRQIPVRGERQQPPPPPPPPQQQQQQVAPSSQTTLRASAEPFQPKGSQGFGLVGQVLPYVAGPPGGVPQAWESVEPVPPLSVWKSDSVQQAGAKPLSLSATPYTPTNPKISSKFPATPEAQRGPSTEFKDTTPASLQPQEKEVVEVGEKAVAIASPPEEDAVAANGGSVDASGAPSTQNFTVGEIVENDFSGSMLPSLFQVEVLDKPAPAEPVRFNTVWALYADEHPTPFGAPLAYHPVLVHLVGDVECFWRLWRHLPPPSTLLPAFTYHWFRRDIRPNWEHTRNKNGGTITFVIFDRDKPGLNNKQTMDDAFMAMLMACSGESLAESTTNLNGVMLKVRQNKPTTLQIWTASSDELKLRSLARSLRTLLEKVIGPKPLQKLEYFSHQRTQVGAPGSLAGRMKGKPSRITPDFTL
UniProt Q585M4: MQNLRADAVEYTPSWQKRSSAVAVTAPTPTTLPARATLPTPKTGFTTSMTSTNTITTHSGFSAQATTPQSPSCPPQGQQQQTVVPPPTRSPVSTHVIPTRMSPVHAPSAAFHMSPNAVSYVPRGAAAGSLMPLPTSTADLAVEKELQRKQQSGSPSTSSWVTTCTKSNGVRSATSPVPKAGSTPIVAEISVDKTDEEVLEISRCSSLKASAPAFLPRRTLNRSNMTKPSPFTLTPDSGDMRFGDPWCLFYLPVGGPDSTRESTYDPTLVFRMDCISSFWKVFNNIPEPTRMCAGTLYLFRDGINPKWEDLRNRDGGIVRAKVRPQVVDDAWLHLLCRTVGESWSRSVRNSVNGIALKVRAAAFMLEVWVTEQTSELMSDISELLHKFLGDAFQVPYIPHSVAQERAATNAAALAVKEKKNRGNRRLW
UniProt Q57UX0: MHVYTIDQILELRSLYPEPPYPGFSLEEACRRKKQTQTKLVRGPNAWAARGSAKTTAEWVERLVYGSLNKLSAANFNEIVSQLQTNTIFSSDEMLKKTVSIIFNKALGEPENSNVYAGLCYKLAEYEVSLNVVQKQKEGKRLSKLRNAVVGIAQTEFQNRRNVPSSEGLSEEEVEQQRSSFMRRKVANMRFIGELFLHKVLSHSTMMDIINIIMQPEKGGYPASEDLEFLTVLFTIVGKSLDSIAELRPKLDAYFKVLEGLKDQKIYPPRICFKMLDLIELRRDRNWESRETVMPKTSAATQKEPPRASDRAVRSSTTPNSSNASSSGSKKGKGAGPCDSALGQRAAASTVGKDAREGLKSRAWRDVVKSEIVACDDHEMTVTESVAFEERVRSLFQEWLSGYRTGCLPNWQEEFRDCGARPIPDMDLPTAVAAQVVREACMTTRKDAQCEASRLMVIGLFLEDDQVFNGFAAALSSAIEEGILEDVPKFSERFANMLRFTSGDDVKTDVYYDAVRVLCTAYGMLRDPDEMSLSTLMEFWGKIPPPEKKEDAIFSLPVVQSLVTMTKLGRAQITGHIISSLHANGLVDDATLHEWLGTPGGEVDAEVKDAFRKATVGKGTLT
UniProt Q383M3: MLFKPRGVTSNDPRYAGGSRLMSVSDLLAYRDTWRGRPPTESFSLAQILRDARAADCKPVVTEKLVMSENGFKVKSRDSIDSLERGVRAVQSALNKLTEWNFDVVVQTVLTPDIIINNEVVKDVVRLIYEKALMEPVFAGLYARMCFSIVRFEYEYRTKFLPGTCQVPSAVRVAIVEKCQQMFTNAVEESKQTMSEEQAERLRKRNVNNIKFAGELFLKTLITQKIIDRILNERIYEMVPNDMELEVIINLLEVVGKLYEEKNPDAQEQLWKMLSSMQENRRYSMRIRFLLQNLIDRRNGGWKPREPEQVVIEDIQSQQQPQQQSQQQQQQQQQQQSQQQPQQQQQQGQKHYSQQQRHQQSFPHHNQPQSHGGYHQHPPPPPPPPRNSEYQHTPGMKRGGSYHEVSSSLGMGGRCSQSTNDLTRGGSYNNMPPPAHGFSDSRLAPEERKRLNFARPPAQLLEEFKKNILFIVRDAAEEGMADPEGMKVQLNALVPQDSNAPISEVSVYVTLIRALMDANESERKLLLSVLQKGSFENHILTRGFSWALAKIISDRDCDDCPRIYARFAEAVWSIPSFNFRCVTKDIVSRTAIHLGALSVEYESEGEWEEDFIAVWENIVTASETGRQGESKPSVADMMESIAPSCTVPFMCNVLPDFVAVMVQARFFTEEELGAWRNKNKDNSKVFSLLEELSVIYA
UniProt Q57XN7: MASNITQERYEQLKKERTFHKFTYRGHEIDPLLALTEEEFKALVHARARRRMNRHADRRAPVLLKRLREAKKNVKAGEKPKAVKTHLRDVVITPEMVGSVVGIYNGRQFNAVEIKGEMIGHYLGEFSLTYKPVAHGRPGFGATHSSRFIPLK
UniProt Q38C95: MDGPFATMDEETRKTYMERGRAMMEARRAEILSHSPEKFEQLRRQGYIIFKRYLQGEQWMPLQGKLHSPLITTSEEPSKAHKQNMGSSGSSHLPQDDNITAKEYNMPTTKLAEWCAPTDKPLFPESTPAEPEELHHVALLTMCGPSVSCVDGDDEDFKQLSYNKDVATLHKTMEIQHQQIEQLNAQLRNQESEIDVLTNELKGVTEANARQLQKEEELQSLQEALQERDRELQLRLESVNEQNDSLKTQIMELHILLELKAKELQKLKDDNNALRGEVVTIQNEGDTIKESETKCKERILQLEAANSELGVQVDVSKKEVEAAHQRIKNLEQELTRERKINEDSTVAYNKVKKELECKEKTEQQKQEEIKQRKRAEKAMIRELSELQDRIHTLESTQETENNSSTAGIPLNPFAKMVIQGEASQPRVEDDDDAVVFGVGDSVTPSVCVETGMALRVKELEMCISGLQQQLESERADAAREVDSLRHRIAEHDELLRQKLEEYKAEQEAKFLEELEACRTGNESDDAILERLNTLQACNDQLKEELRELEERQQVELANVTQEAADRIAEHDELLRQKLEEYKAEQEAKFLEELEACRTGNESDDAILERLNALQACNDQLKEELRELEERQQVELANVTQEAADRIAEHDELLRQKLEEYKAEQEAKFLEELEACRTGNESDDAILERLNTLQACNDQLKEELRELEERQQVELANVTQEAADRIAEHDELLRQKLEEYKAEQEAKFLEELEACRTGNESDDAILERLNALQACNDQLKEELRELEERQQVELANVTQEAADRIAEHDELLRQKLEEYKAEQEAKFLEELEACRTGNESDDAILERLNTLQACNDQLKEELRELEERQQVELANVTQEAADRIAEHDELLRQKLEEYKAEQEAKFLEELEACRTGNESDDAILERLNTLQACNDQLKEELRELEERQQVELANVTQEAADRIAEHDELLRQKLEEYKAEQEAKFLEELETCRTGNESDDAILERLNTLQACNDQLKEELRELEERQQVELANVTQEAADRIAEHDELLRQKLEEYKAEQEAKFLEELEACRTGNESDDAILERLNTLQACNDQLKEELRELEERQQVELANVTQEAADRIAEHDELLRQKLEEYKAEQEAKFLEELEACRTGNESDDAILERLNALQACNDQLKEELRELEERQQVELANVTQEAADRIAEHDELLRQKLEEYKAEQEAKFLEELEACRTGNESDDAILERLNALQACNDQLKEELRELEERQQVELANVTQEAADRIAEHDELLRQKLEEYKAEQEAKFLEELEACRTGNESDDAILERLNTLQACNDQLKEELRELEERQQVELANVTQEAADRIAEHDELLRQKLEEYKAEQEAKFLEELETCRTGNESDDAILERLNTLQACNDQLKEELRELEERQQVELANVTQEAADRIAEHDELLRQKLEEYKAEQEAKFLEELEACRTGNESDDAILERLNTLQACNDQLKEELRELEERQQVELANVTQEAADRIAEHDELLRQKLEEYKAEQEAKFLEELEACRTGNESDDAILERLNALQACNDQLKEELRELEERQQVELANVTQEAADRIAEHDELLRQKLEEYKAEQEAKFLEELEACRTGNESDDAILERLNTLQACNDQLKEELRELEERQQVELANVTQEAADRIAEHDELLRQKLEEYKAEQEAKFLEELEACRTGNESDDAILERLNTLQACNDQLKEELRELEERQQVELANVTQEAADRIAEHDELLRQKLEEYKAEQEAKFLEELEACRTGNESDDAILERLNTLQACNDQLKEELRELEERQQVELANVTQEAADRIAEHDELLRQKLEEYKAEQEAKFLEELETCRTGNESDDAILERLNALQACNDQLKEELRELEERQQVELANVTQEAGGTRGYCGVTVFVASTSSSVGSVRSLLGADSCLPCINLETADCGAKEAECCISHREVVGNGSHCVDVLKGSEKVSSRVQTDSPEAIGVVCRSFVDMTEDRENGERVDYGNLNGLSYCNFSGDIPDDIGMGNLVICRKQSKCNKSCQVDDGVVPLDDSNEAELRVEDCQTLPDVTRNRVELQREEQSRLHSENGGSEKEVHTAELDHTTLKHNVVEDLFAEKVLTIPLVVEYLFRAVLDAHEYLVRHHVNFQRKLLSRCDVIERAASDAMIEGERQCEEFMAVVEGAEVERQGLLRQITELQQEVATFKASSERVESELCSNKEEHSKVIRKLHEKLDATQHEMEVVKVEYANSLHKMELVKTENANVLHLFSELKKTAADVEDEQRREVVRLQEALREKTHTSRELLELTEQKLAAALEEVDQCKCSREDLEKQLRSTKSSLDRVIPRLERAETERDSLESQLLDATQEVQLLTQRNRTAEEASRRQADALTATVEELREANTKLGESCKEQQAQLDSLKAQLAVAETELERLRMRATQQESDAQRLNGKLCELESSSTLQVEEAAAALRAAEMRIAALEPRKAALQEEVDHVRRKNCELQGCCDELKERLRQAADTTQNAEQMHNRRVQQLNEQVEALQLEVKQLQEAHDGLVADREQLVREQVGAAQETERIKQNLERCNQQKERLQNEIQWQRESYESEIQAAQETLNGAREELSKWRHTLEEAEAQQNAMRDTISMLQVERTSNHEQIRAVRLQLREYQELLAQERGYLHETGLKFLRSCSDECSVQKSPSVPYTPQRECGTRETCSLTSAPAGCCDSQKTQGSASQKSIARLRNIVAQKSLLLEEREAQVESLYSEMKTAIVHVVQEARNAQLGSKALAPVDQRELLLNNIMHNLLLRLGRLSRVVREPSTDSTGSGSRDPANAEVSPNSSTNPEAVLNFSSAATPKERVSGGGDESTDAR
UniProt Q389L2: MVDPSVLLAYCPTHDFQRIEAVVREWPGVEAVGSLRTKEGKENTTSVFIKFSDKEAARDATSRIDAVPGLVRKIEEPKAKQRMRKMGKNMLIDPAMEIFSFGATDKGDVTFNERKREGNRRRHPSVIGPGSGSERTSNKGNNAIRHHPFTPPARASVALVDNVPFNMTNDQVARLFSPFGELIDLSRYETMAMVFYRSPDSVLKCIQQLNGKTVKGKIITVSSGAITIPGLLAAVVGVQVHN

Columns and labels:
Assay in all cases: affinity purification with mass spectrometry; eYFP-tagged bait captured from lysate of cryogenically ground T. brucei procyclic cells (100 mM KCl, 1 mM MgCl2, 50 mM Hepes pH 7.2, 5% glycerol; no detergent, no RNase added) on llama anti-GFP nanobody (LaG-16-G4S-LaG-2) Dynabeads; biological triplicates; enrichment against the eYFP-DRBD4 control, or pairwise between the two eIF4E and the two eIF4G baits
[1] = molecular target: Eukaryotic translation initiation factor 4E-3 (Trypanosoma brucei (endogenous in procyclic Lister 427 cells)) (UniProt Q383A4)
[2] = molecular target: Eukaryotic translation initiation factor 4E-4 (Trypanosoma brucei (endogenous in procyclic Lister 427 cells)) (UniProt Q585M4)
[3] = molecular target: Eukaryotic translation initiation factor 4 gamma 3 (Trypanosoma brucei (endogenous in procyclic Lister 427 cells)) (UniProt Q57UX0)
[4] = molecular target: Eukaryotic translation initiation factor 4G type 4 (Trypanosoma brucei (endogenous in procyclic Lister 427 cells)) (UniProt Q383M3)
[5] = molecular target: Eukaryotic translation initiation factor 4 gamma 3 (Trypanosoma brucei (endogenous in procyclic Lister 427 cells)) (UniProt Q57UX0); remark: listed apart in the source
[6] = molecular target: Eukaryotic translation initiation factor 4E-4 (Trypanosoma brucei (endogenous in procyclic Lister 427 cells)) (UniProt Q585M4); remark: listed apart in the source
[7] = molecular target: Eukaryotic translation initiation factor 4G type 4 (Trypanosoma brucei (endogenous in procyclic Lister 427 cells)) (UniProt Q383M3); remark: listed apart in the source
[8] = molecular target: Eukaryotic translation initiation factor 4E-3 (Trypanosoma brucei (endogenous in procyclic Lister 427 cells)) (UniProt Q383A4); remark: listed apart in the source

40S ribosomal protein S15 (from UniProt Q57XN7)
binding [1]: binds

Centrin arm-associated protein 1 (from UniProt Q38C95)
binding [1]: binds

Eukaryotic translation initiation factor 4 gamma 3 (from UniProt Q57UX0)
binding [2]: binds | binding [1]: no binding

Eukaryotic translation initiation factor 4E-4 (from UniProt Q585M4)
binding [3]: binds | binding [4]: no binding | binding [1]: no binding

Eukaryotic translation initiation factor 4G type 4 (from UniProt Q383M3)
binding [2]: no binding | binding [1]: binds

Midasin (from UniProt Q4GZD0 1-4600)
binding [1]: binds

RNA-binding protein 23 (from UniProt Q389L2)
binding [3]: binds | binding [2]: binds | binding [4]: no binding | binding [1]: no binding

B1: CRK1 kinase (enzyme, UniProt P38973 1-301)
chain: MGSRYERLQKIGEGSYGVVFRARDVTTGTIVAVKRIRLEKEEEGVPCTAIREISILKELRHENIVRLLDVCHSEKRLTLVFECMEMDLKKYMDHVGGDLDAGTIQEFMRSLLSGVRFCHERNVLHRDLKPPNLLISREKELKLADFGLGRAFGIPVKKFTQEVVTLWYRSPDVLLGSTQYGTPVDIWSVGCIFAEMAIGAPLFTGKNDADQLLRIFQFLGTPNRQVWPSMDTYPNSSNMLSRPEFQQTLAATCEEQFQTNPAYAKLGPQGIDLLRWLLRYEPSERLTAAQALEHPYFSVEF
binding [5]: binds | binding [6]: binds

B2: ATP-dependent 6-phosphofructokinase (enzyme, UniProt O15648 1-487)
chain: MAVESRSRVTSKLVKAHRAMLNSVTQEDLKVDRLPGADYPNPSKKYSSRTEFRDKTDYIMYNPRPRDEPSSENPVSVSPLLCELAAARSRIHFNPTETTIGIVTCGGICPGLNDVIRSITLTGINVYNVKRVIGFRFGYWGLSKKGSQTAIELHRGRVTNIHHYGGTILGSSRGPQDPKEMVDTLERLGVNILFTVGGDGTQRGALVISQEAKRRGVDISVFGVPKTIDNDLSFSHRTFGFQTAVEKAVQAIRAAYAEAVSANYGVGVVKLMGRDSGFIAAQAAVASAQANICLVPENPISEQEVMSLLERRFCHSRSCVIIVAEGFGQDWGRGSGGYDASGNKKLIDIGVILTEKVKAFLKANKSRYPDSTVKYIDPSYMIRACPPSANDALFCATLATLAVHEAMAGATGCIIAMRHNNYILVPIKVATSVRRVLDLRGQLWRQVREITVDLGSDVRLARKLEIRRELEAINRNRDRLHEELAKL
binding [7]: binds | binding [8]: binds

B3: Eukaryotic initiation factor 4A-1 (protein, UniProt Q38F76 1-404)
chain: MAQQGKVEPQDQDSFLDDQPGIRPIPSFDDMPLHQNLLRGIYSHGFEKPSSIQQRAIVPFTRGGDIIAQAQSGTGKTGAFSIGLLQRLDFRHNVLQGLVLSPTRELAMQTAEVITRIGEFLAEGSSSFCATFVGGTRVQDDYRKLQSGTIVAVGTPGRVVDVTKRGAMRTESLRVLVLDEADEMLSQGFAEQIYDIFRFLPKEIQVALFSATMPDDVLELTKKFMRDPTRILVKRESLTLEGIKQFFIAVEEEHKLDTLMDLYETVSIAQSVIFANTRRKVDWLASQLNSSNHTVSCMHSEMSKQEREKVMGTFRNGSSRVLVTTDLVARGIDVHHVNIVINFDLPTNKENYLHRIGRGGRYGRKGVAINFVTQKDVEVLREIESHYHTQIEELPVDFAAYLGE
binding [6]: binds | binding [7]: no binding | binding [8]: no binding

B4: 40S ribosomal protein S24 (protein, UniProt Q38AM9 1-137)
chain: MVFQKKKAEVTVRTSQFKVNKLLNRKQFVVEVNHPGWCGTVPAKLIRNRLASLYKVADENQISVFGFKTKFGGGKTTGFGLIYDDLAAMKRIEPNYRKARLGMGKKKLPARKSVKERRNRNKKIRGKAKGKMQTKKK
binding [5]: binds | binding [7]: binds
